Laboratory results published in paper PMC12772958.
These are yes or no findings as the source states them, for the method shown. In cells and extracts the contact can be indirect. Tags and fused reporters may be left off the sequences shown.

By UniProt entry, the sequences of proteins in these tests, tags left out. Where a name states a change or a piece, a line headed by the entry shows the natural chain unless it says otherwise. Residues count along the entry.
UniProt O00160: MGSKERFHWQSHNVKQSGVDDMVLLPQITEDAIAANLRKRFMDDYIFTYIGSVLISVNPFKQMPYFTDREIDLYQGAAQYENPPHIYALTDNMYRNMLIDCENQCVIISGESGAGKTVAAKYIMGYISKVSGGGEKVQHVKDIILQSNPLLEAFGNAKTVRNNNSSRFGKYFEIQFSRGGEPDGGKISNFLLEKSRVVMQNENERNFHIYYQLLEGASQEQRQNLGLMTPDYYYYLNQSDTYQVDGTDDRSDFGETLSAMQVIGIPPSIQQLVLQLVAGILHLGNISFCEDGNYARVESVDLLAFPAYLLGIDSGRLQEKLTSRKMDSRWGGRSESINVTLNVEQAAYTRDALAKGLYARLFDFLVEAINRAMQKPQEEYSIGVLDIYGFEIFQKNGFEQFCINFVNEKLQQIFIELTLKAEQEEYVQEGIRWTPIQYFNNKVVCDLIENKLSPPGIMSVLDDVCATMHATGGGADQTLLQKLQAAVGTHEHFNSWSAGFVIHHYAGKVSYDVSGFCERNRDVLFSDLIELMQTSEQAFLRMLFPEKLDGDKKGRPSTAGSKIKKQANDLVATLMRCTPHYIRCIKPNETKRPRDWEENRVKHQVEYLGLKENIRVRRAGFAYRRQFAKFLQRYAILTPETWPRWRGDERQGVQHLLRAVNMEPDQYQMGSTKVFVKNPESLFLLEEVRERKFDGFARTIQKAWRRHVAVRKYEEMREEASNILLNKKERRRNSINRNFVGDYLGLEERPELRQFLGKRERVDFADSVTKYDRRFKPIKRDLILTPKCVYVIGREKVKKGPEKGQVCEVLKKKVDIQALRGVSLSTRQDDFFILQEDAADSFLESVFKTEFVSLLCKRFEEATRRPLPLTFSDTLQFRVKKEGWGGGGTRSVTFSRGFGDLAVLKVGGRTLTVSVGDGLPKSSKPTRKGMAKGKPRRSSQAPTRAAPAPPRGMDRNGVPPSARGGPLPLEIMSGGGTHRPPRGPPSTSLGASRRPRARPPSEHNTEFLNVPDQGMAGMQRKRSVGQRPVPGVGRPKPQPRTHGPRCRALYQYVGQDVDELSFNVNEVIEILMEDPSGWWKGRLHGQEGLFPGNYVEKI
UniProt Q9ULH1, residues 589-1129: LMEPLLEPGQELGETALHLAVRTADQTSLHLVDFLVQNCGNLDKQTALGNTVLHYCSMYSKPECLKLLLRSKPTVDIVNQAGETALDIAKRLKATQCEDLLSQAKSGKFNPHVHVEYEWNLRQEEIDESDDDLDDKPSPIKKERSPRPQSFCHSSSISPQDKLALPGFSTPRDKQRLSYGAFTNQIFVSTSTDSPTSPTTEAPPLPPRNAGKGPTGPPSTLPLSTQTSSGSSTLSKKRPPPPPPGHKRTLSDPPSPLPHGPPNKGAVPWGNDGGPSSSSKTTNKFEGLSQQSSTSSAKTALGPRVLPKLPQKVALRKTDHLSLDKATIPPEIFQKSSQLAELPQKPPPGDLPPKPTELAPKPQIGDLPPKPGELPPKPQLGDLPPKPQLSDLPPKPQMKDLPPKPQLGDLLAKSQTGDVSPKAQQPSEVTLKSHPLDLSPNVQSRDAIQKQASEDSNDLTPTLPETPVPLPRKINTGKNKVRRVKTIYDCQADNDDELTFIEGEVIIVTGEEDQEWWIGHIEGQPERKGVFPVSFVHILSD
UniProt Q96B97: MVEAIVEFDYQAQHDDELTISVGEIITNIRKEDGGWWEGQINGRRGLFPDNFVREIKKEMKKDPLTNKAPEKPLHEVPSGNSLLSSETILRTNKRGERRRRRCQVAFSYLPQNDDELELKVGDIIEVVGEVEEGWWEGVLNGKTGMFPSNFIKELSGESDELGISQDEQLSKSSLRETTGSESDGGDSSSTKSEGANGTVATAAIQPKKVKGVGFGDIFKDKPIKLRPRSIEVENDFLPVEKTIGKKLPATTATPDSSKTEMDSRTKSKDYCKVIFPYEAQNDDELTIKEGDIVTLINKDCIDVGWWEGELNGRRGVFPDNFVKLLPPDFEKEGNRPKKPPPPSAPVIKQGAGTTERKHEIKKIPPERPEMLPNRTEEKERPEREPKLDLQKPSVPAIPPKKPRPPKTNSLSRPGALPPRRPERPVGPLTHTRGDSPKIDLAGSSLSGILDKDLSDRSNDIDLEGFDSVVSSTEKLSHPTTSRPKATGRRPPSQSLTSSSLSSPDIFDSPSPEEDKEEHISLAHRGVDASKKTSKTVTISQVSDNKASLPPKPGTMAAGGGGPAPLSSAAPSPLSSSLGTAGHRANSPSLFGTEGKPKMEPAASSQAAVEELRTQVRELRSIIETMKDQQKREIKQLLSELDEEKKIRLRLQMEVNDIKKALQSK

B1: Myc–SH3BP2 (protein, UniProt P78314 1-561)
chain: MAAEEMHWPVPMKAIGAQNLLTMPGGVAKAGYLHKKGGTQLQLLKWPLRFVIIHKRCVYYFKSSTSASPQGAFSLSGYNRVMRAAEETTSNNVFPFKIIHISKKHRTWFFSASSEEERKSWMALLRREIGHFHEKKDLPLDTSDSSSDTDSFYGAVERPVDISLSPYPTDNEDYEHDDEDDSYLEPDSPEPGRLEDALMHPPAYPPPPVPTPRKPAFSDMPRAHSFTSKGPGPLLPPPPPKHGLPDVGLAAEDSKRDPLCPRRAEPCPRVPATPRRMSDPPLSTMPTAPGLRKPPCFRESASPSPEPWTPGHGACSTSSAAIMATATSRNCDKLKSFHLSPRGPPTSEPPPVPANKPKFLKIAEEDPPREAAMPGLFVPPVAPRPPALKLPVPEAMARPAVLPRPEKPQLPHLQRSPPDGQSFRSFSFEKPRQPSQADTGGDDSDEDYEKVPLPNSVFVNTTESCEVERLFKATSPRGEPQDGLYCIRNSSTKSGKVLVVWDETSNKVRNYRIFEKDSKFYLEGEVLFVSVGSMVEHYHTHVLPSHQSLLLRHPYGYTGPR

Target: GFP–MYO1FΔSH3 (human) (UniProt O00160)
Experiment: co-IP; anti-GFP antibodies and protein A Sepharose from RPE cells stably expressing GFP–MYO1F or GFP–MYO1FΔSH3 and transiently transfected with Myc-tagged partners; blot with anti-Myc; lysis in 50 mM Tris-HCl pH 7.4, 100 mM NaCl, 1% NP-40, 5 mM MgCl2, 5 mM ATP; also after siRNA knockdown of SH3KBP1 or ASAP1

Molecule	binding
Myc–ASAP1-3′ (amino acids 589–1129) (from UniProt Q9ULH1 589-1129) (domain or fragment)	no binding
Myc–SH3KBP1 (from UniProt Q96B97 1-665)	no binding
B1	no binding
